Reference: PubChem BioAssay AID2551 (National Center for Advancing Translational Sciences (NCATS), 2010)
Values joined by “and” are separate entries in the source; they are usually repeats but may differ in a detail not shown here. Equal values may be shown once. The campaign covered roughly 310,000 compounds. About 17,000 (5.5%) were called active. Inconclusive results, whose numbers are uncertain, are shown with a selection of clear calls. Calls come from the whole dose curve; as a rule, active = well fitted inhibition curve with a large enough effect; inconclusive = small, poorly fitted or top-dose-only effect, or effect the other way; inactive = no such curve, though single readings can be large or run the other way. Potencies of inconclusive entries are doubtful fits and often do not repeat.

Sequences of proteins named here, by UniProt entry; tags and fusion partners are left off. A change or cut given only in a name is not applied to a line headed by its entry.
UniProt P51450: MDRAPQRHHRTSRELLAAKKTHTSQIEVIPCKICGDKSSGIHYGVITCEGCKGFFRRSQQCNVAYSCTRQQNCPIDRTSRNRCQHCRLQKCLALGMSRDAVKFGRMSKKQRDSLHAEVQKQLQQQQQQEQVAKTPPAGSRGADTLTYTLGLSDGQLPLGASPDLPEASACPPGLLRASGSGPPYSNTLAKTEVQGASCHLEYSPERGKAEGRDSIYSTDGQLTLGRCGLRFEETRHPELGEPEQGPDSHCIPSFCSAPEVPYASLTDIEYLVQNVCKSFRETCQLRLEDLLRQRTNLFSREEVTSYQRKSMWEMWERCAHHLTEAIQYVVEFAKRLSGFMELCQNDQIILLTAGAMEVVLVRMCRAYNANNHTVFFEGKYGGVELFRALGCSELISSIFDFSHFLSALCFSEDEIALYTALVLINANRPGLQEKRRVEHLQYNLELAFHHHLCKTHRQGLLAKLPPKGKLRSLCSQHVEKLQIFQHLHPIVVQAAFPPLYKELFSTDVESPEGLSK

target: Nuclear receptor ROR-gamma (Mus musculus) (UniProt P51450); test: qHTS for inhibitors of ROR gamma transcriptional activity; details: Drosophila S2 Gal4-RORgamma UAS-luciferase reporter, 20 h; activity change, negative = inhibition: at 53.6 µM (top of the series); note: nearly all actives have a fitted effect of over 60% in size
Summary of the method: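 Drosophila S2 cells stably expressing Gal4-DBD/mouse RORγ fusion under metallothionein promoter plus UAS-luciferase; compound 1 h, then 700 uM CuSO4 induction for 20 h at ambient temperature; inhibition read as reduced luminescence.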
% is set by controls: 0 for no effect and ±100 for the full control effect; potency is the fitted concentration of half-maximal effect.

Potency, active:
NS(=O)(=O)c1ccc(NC(=S)Nc2nn(Cc3ccc(Cl)cc3Cl)cc2Cl)cc1 6.31 µM
CCCOc1cccc(-c2cc(C(=O)NN)c3ccccc3n2)c1 11.2 µM
CC(Oc1ccc(Cl)cc1Cl)C(=O)NC(=S)N1CCc2ccccc21 (stereo not drawn) 0.708 µM
C=CCn1c(CCn2c3ccccc3c3ccccc32)n[nH]c1=S 3.98 µM
Cc1cc(C(=O)Nc2nnc(C3CCCCC3)s2)no1 20 µM
Cc1ccc(C(=O)NC(=S)N(C)C2CCCCC2)cc1 2.24 µM
N/C(=C\C(=O)c1cc(Cl)ccc1O)C(Cl)(Cl)Cl 3.98 µM
O=C(N/N=C/C=C/c1ccc([N+](=O)[O-])cc1)C1COc2ccccc2O1 (stereo not drawn) 10 µM
O=C(CCCN1C(=O)/C(=C/c2ccccc2Cl)SC1=S)Nc1ccccn1 1.78 µM
O=C(Nc1ccc(-c2nc3cccnc3s2)cc1)C1CCCO1 (stereo not drawn) 17.8 µM

Potency, inactive:
COc1cc2c(c(OC)c1OC)-c1ccc(OC)c(=O)cc1C(NC(C)=O)CC2 (stereo not drawn)

Potency, inconclusive:
CN(CC(O)Cn1cnc2c1c(=O)n(C)c(=O)n2C)c1ccccc1 (stereo not drawn) 17.8 µM [activator, single point]
Cc1c(C(=O)NC(=S)Nc2ccccc2N2CCCC2)cccc1[N+](=O)[O-] 3.55 µM [inhibitor, single point]
COc1ccc(CNC(NC(=O)c2ccccc2)(C(F)(F)F)C(F)(F)F)cc1 14.1 µM [inhibitor, single point]
O=S(=O)(Cc1ccco1)Cc1nc(-c2ccc(Cl)cc2)cs1 25.1 µM [inhibitor, single point]
COc1ccc(NC(=O)CCC(=O)OC(C(=O)c2ccccc2)c2ccccc2)cc1 (stereo not drawn) 14.1 µM [activator, partial curve]
CN(C)CCNCc1ccccc1OC1CCCC1 1.58 µM [inhibitor, partial curve]
Cc1ccc(C2CCN(C(=S)NC(C)(C)C)C2)cc1 (stereo not drawn) 3.98 µM [inhibitor, single point]
CCO[C@H]1OC(C(=O)Nc2ccccc2)=C[C@@H](c2csc3ccccc23)[C@@H]1CCCO 31.6 µM [activator, single point]
COc1ccccc1NS(=O)(=O)c1cc(NC(=S)Nc2cc(C)cc(C)c2)ccc1Cl 35.5 µM [inhibitor, single point]
COc1ccccc1/C=C/C=N/NC(=O)c1ccccn1 20 µM [inhibitor, single point]
CN(C(=O)c1ccncc1)c1nnc(-c2ccccn2)s1 1.58 µM [activator, partial curve]
Cn1cc(Br)c(C(=O)NNC(=O)c2ccc(Br)cc2)n1 22.4 µM [inhibitor, single point]
Cn1cc(S(=O)(=O)CC(=O)N2CCCc3ccccc32)c2ccccc21 5.62 µM [activator, single point]
COCCNC(=O)c1cc2c(=O)n3cccc(C)c3nc2n(Cc2ccncc2)c1=N 3.16 µM [inhibitor, single point]
O=C(CNC(=O)c1cccc(F)c1)OCC(=O)N1CCCc2ccccc21 14.1 µM [activator, single point]
CCCC1=NN(C(=O)Cc2ccc(OC)c(OC)c2)C(O)(C(F)(F)F)C1 (stereo not drawn) 35.5 µM [inhibitor, single point]
O=C(c1cc(COc2ccc(F)c(F)c2)on1)N1CCN(C/C=C/c2ccccc2)CC1 35.5 µM [activator, single point]
COc1cc(/C=C\c2ccc(OC)cc2OC)cc(OC)c1 14.1 µM [activator, partial curve]
NS(=O)(=O)c1ccc(NC(=O)CN2CCN(S(=O)(=O)c3ccc(F)cc3)CC2)cc1 20 µM [activator, single point]
CCNC(=O)N1c2ccc(OC)cc2C(C)=CC1(C)C 35.5 µM [inhibitor, single point]
O=C(CSc1cccc2cccnc12)OCC(=O)c1ccccc1 35.5 µM [inhibitor, single point]
COc1ccc(C(=O)NC(=S)Nc2ccc(Cc3ccncc3)cc2)cc1 15.8 µM [inhibitor, single point]
N#C/C(=C\c1ccccc1)C(=O)Nc1cc(S(=O)(=O)N2CCOCC2)ccc1N1CCCC1 1.58 µM [inhibitor, partial curve, poor fit]
Cc1ccc(NC(=O)CSc2nc3ccc(Nc4nc(N5CCOCC5)nc(N5CCOCC5)n4)cc3s2)cc1 1.58 µM [inhibitor, single point]
CCOc1cc(CNCCCN2CCOCC2)cc(Br)c1OCC(=O)Nc1cccc(C(F)(F)F)c1 35.5 µM [inhibitor, single point]
COc1ccc(S(=O)(=O)N2CCCC(C(=O)NCc3ccc(F)cc3)C2)cc1 (stereo not drawn) 12.6 µM [activator, single point]
COc1cc(NC(=O)c2ccccc2)c(OC)cc1NC(=O)Cc1ccc(F)cc1 22.4 µM [activator, partial curve, poor fit]
COc1cc(C)c(C(=O)Oc2cc(C)c(C(=O)O)c(O)c2C)c(OC)c1C 14.1 µM [activator, single point] and 15.8 µM [activator, single point]
CC(OC(=O)c1ccc(S(=O)(=O)NCc2ccco2)cc1)C(=O)Nc1ccc(Cl)cn1 (stereo not drawn) 15.8 µM [activator, partial curve]
CN(C)CCCN(C(=O)c1cc(-c2cccs2)nc2ccccc12)c1nc2ccc(F)cc2s1 17.8 µM [inhibitor, single point]
CC1(C)CC(=O)C=C(NC2=CC3OC(c4ccccc4)OCC3OC2=O)C1 (stereo not drawn) 35.5 µM [inhibitor, single point]
COc1cc(OC)c(NC(=O)CCc2nc(-c3ccc(C)cc3)no2)cc1Cl 14.1 µM [activator, partial curve]
Cc1[nH]c2ccccc2c1/C=C(\C#N)C(=O)NC1CC1 3.16 µM [activator, full curve]
Cc1cccc(N2CCN(C(=O)NC3CCCCC3)CC2)c1C 17.8 µM [activator, partial curve]
CC(/C=C/c1ccccc1)=N\NC(=O)c1cc(C)[nH]n1 15.8 µM [inhibitor, single point]
Cc1cccc(N2CCN(C(=O)c3cccc(N4C(=O)C5C6C=CC(C6)C5C4=O)c3)CC2C)c1 (stereo not drawn) 22.4 µM [activator, single point]
COc1ccc(S(=O)(=O)Cc2ccc(C(=O)N3CCN(c4cccc(C)c4C)CC3)o2)cc1 35.5 µM [activator, partial curve, poor fit]
Cc1cc(S(=O)(=O)Nc2ccc(F)cc2)c(C)s1 22.4 µM [inhibitor, single point]

Activity change, negative = inhibition, inactive:
CC1Sc2ccc(S(=O)(=O)CCC(=O)N3CCN(c4ccccc4F)CC3)cc2NC1=O (stereo not drawn) 4.72%
CC[C@H](C)[C@H](NC(=O)c1ccccc1)C(=O)Nc1ccc(S(=O)(=O)Nc2cc(C)nc(C)n2)cc1 34.4%
COc1ccc(CCN2C(=O)CSC2c2ccc(OC)c(OC)c2)cc1OC (stereo not drawn) 41.3%
COc1ccc(NS(=O)(=O)c2cc(NC(=O)c3ccncc3)ccc2N2CCOCC2)cc1 5.66%
CCOC(=O)c1c(NC(=O)C2CCCCC2C(=O)O)sc2c1CCCCC2 (stereo not drawn) 15.6%
CCCCOc1ccc(C(=O)NCC(=O)OC2CCOC2=O)cc1 (stereo not drawn) -14.1%
CC(=O)Oc1ccccc1N(C(C)=O)S(=O)(=O)c1ccc(C)cc1 10.9%
CCCSc1ncc(Cl)c(C(=O)Nc2ccc(S(=O)(=O)N3CC(C)OC(C)C3)cc2)n1 (stereo not drawn) 31.5%
CSc1ncc(Cl)c(C(=O)C(C#N)c2nc3c(C)cc(C)cc3c(=O)[nH]2)n1 (stereo not drawn) 22.8%
CCc1ccc(NC(=O)c2ccc3ncsc3c2)cc1 10.2%
COc1cccc(NC(=O)Cn2nnc(C(=O)NCc3ccc4c(c3)OCO4)c2N)c1 8.78%
CCc1cccc(CC)c1NC(=O)COC(=O)CCc1cc(OC)c(OC)c(OC)c1 -2.07%
COc1ccc2c(c1)C(=NO)c1cc(OC)ccc1-2 33.6%
CC(=O)c1cccc(NC(=O)c2cc(C)no2)c1 8.78%
CCOC(=O)c1cc(S(=O)(=O)NCCc2ccc(OC)c(OC)c2)cn1C 1.39%
CC1CCN(Cc2nnnn2CCCC(=O)NC(c2ccccn2)C(F)(F)F)CC1 (stereo not drawn) 12.2%
Cc1cc(C(=S)N2CCOCC2)c(C)n1-c1ccc(Cl)cc1 10.5%
COC(=O)c1ccc(Nc2cc(C)nc3ccccc23)cc1 -44.8%
O=C(c1cccc(Br)c1)N1CCN(c2cnn(-c3ccccc3)c(=O)c2Cl)CC1 11.6%
COCCCNc1nc(CC(C)C)nc2c1nnn2Cc1ccccc1 27.5%
Cc1nn(Cc2ccccc2Cl)c2sc(C(=O)NC(C)(C)C)cc12 -9.83%
CC1CCc2c(sc3nc(CN4CCOCC4)nc(Sc4ccccc4)c23)C1 (stereo not drawn) -44.9%
O=C(c1ccccc1-n1cccn1)N1CCc2c([nH]c3ccccc23)C1c1ccccn1 (stereo not drawn) 15.9%
CCC(C#CCN1CCCCC1)(CC)OCCC#N 13%

Reprinted at random: 3 entries already listed
Activity change, negative = inhibition, inactive:
CC[C@H](C)[C@H](NC(=O)c1ccccc1)C(=O)Nc1ccc(S(=O)(=O)Nc2cc(C)nc(C)n2)cc1 34.4%
COc1ccc(CCN2C(=O)CSC2c2ccc(OC)c(OC)c2)cc1OC (stereo not drawn) 41.3%
CSc1ncc(Cl)c(C(=O)C(C#N)c2nc3c(C)cc(C)cc3c(=O)[nH]2)n1 (stereo not drawn) 22.8%

A draw from above in order of length of the SMILES, ascending:
Activity change, negative = inhibition, inactive:
Cc1nn(Cc2ccccc2Cl)c2sc(C(=O)NC(C)(C)C)cc12 -9.83%
CSc1ncc(Cl)c(C(=O)C(C#N)c2nc3c(C)cc(C)cc3c(=O)[nH]2)n1 (stereo not drawn) 22.8%
CCCSc1ncc(Cl)c(C(=O)Nc2ccc(S(=O)(=O)N3CC(C)OC(C)C3)cc2)n1 (stereo not drawn) 31.5%
